Data as given in PubChem BioAssay AID504793 (Drosophila RNAi Screening Center, 2011).
Assay: 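Whole-genome screen for parts of the DNA damage checkpoint at G2/M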 (primary screen). System: Drosophila S2R+ cells. Reagent: long dsRNA against Drosophila genes, about 0.25 µg dsRNA per well. Time to read-out: 4 days of dsRNA, then 4 hours of drug before read-out. Conditions: doxorubicin 0.5 µM for 4 hours to cause double-strand breaks, in cells also given a low, harmless dose of dsRNA against nbs to sensitise the assay. Read-out: 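Mitotic index as the number of phospho-histone H3-positive cells in each well following doxorubicin, given as raw counts without normalisation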. Direction: mitotic cells: higher = more cells in mitosis, weaker G2 arrest. Call rule: 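Genes are called active only when high mitotic counts were reproduced with independent dsRNAs and mitosis was checked for delay without damage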. Meaning of the calls: active = confirmed in follow-up tests; inactive = not confirmed.
The screen tested about 23,000 reagents; below is an unselected part of those that have a named target and a result. In the full data, 62 (0.27%) were called active. 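Calls come from follow-up tests whose scores are not deposited, so confirmed genes may have low counts here; counts are not normalised per plate.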 Raw values vary from plate to plate and are shown uncorrected. Names joined by + are all predicted targets of the reagent.

Which result is listed for cv (crossveinless) [DRSC17833]?
mitotic cells, replicate 1: 11; Outcome: inactive

Which result is listed for CG4198 [DRSC18354]?
mitotic cells, replicate 1: 2; Outcome: inactive

What is on record for CG4198 [DRSC26635]?
mitotic cells, replicate 1: 12; Outcome: inactive

Which result is listed for CG14377 [DRSC14837]?
mitotic cells, replicate 1: 9; Outcome: inactive

What is on record for CG14377 [DRSC26342]?
mitotic cells, replicate 1: 8; Outcome: inactive

How did the screen score ome (omega) [DRSC09322]?
mitotic cells, replicate 1: 14; Outcome: inactive

Which result is listed for ome (omega) [DRSC10282]?
mitotic cells, replicate 1: 4; Outcome: inactive

For ome (omega) [DRSC11380], how do the results read?
mitotic cells, replicate 1: 4; Outcome: inactive

What is on record for CG13064 [DRSC09947]?
mitotic cells, replicate 1: 2; Outcome: inactive

For CG31784 [DRSC01574], what does the deposit list?
mitotic cells, replicate 1: 1; Outcome: inactive

What did the screen give for CG2217 + CG42740 [DRSC14141]?
mitotic cells, replicate 1: 5; Outcome: inactive

How did the screen score TwdlL (TweedleL) [DRSC16042]?
mitotic cells, replicate 1: 4; Outcome: inactive

With Ekar (Eye-enriched kainate receptor) [DRSC17161], what was measured?
mitotic cells, replicate 1: 19; Outcome: inactive

For Ekar (Eye-enriched kainate receptor) [DRSC24931], what was measured?
mitotic cells, replicate 1: 6; Outcome: inactive

For NimB2 (Nimrod B2) [DRSC22645], how do the results read?
mitotic cells, replicate 1: 11; Outcome: inactive

For CG14562 [DRSC11723], what was measured?
mitotic cells, replicate 1: 6; Outcome: inactive

With CG33298 [DRSC02210], what was measured?
mitotic cells, replicate 1: 9; Outcome: inactive

For CG33298 [DRSC02672], how do the results read?
mitotic cells, replicate 1: 8; Outcome: inactive

For CG18223 [DRSC10306], what was measured?
mitotic cells, replicate 1: 2; Outcome: inactive

What did the screen give for Eglp2 (Entomoglyceroporin 2) [DRSC04294]?
Outcome: inactive

How did the screen score klg (klingon) [DRSC13591]?
mitotic cells, replicate 1: 55; Outcome: inactive

How did the screen score klg (klingon) [DRSC16978]?
mitotic cells, replicate 1: 8; Outcome: inactive

For CG8993 [DRSC08616], what does the deposit list?
mitotic cells, replicate 1: 5; Outcome: inactive

With CG8993 [DRSC27318], what does the deposit list?
mitotic cells, replicate 1: 3; Outcome: inactive
